Results on one molecule are retold here after article PMC8093152, “Biosynthesis of the Tricyclic Aromatic Type II Polyketide Rishirilide: New Potential Third Ring Oxygenation after Three Cyclization Steps” (Molecular Biotechnology, 2021).

Results are given in words; binding and its absence hold for the method and conditions named. Some results given as binding are weak or reduced against the parent protein; the word gives no strength. Tags and fused reporters may be left off the sequences shown.

In the assay the target is RslO1 monooxygenase, C-terminal His-tag recombinant protein (Streptomyces bottropensis Gö C4/4) (UniProt W8QPS6). Kind of assay: crystal structure; apo RslO1, sitting drop vapor diffusion at 20 °C, 0.1 M HEPES pH 7.5, 36% polyethylene glycol 600 (seeded); space group P2(1)2(1)2(1); 1.60 Å; both purified.

B1: RslO1 monooxygenase, C-terminal His-tag recombinant protein (enzyme, Streptomyces bottropensis Gö C4/4)
chain: MKFGINLFPTVGPAEKSAGQHFEESLRLAELADELGFHHVKTVEHYFHEYGGYSPDPVTFLAAAAARTRRVRLVTGAVLPVFTHPLKLAGKLAMLDNISQGRLDVGFGRAFLPDEFTAFEISMDESRARFDEGVEAVRRLWAEEDVVWEGTFHRFGPVTMLPRTWQRPHPRILVATAKTPASAEAAARAGHGVMLVPSINPREQVQKTLSLYRDAASAAGFKPTEEDIHMSYNCYLAEDGQEARQKGGQASERANRALASAVSAWRETRSADYPGYEKIVEKAGRGDFDRAVAERKALVGTPDEVRAAIDDIRGWFGDFTISLQVISGAMPFEESARTMRLFAEHLLPHYAAND
notes: RslO1, FMN-dependent luciferase-like monooxygenase of the rishirilide (Rsl) gene cluster of Streptomyces bottropensis Gö C4/4; gene amplified from cosmid 4 and cloned between NdeI and XhoI of pET21a(+); predicted mass of the tagged protein 40.04 kDa; also called monooxygenase RslO1; FMN-dependent luciferase-like monooxygenase RslO1; source: E. coli BL21 (DE3) Star, pET21a(+), purified (Ni-NTA …)
As for B1, the binding entry is given as “binds”.
